In patent CN114605540A:
No constants are given. Whether binding was seen depends on the method and setting. Some results given as binding are weak or reduced against the parent protein; the word gives no strength.

The chains behind the UniProt entries cited, without tags or fusion partners. Residues count along the entry.
UniProt P10747, residues 19-152: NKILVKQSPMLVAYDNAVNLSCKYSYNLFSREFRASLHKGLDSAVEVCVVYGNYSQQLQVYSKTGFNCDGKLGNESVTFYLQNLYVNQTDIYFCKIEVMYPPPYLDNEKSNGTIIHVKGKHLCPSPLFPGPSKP

The binders below were run against CD28 ECD蛋白 (UniProt P10747) (assay: monoclonal phage ELISA on coated CD28, two rounds of verification).

Binder	binding
P2-2C (VHH) VHH: AVQLVESGGGSVQPGGSLRLSCAASGSIFSIEIMGWYRQAPGKQRELVAGITSGGLTNYADSVKGRFTISRDNAKNTVYLQMNSLKPEDTAVYYCNAQTRRVGGLPGGSWGQGTQVTVSS	binds
P1-8C (VHH) VHH: AVQLVESGGGLVQPGGSLRLSCAASGSIFSIEIMGWYRQAPGKQRELVAGITSGGLTNYADSVKGRFTISRDDAKNTVYLQMNSLKPEDTAVYYCNAQTRRVGGLPGGSWGQGTQVTVSS	binds
P1-1A (VHH) VHH: AVQLVESGGGLVQPGGSLRLSCAASRSIFRIEVMGWYRQAPGKQRELVAGITSGGLTNYAGSVKGRFTISRDNAENTVYLQMDSLKPEDTAVYYCNAQTRRLGGLPGGSWGQGTQVTVSS	binds
P1-8D (VHH) VHH: AVQLVESGGGLVQPGGSLRLSCAASGSIFSIEIMGWYRQAPGKQRELVAGITGGGLTNYADSVKGRFTISRDNAKNTVYLQMNSLKPEDTADYYCNAQTRRVGGLPGGSWGQGTQVTVSS	binds
P1-4C (VHH) VHH: AVQLVESGGGLVLPGGSLRLSCAASGSIFSIEIMGWYRQAPGKQRELVAGITSGGLTNYADSVKGRFTISRDNAKNTVYLQMNSLKPEDTAVYYCNAQTRRVEGLPGGSWGQGTQVTVSS	binds
P1-8F (VHH) VHH: AVQLVESGGGLVQPGGSLRLSCAASRSIFRVEVMGWYRQAPGKQRELVAGITSGGLTNYAGSVKGRFTISRDNAENTVYLQMDSLKPEDTAVYYCNAQTRRLGGLPGGSWGQGTQVTVSS	binds
P1-6C (VHH) VHH: AVQLVESGGGLVQPGGSLRLSCAASGSIFSIEIMGWYRQAPGKQRELVAGITSGGLTNYADSVKGRFTISRDNAKNTVYLQMNSLKPEDTAVYYCNAQTRRVGGLPGGSWGQGTQVTVSS	binds
P2-1G (VHH) VHH: AVQLVESGGGLVQPGGSLRLSCAASGSIFSIEIMGWYRQAPGKQRELVAGITSGGLTNYADSVKGRFIISRDNAKNTVYLQMNSLKPEDTAVYYCNAQTRRVGGLPGGSWGQGTQVTVSS	binds
P1-9D (VHH) VHH: AVQLVESGGGLVQPGGSLRLSCAASGSIFSIEIMGWYRQAPGKQRELVAGITSGGLTNYADSVKGRFTISRDNAKNTAYLQMNSLKPEDTAVYYCNAQTRRVGGLPGGSWGQGTQVTVSS	binds
P1-6H (VHH) VHH: AVQLVESGGGLVQPGGSLRLSCAASGSIFSIEVMGWYRQAPGKQRELVAGITSNGLTNYADSVKGRFTISRDNAENTVYLQMNSLKPEDTGVYYCNAQTRRIGGLPGGSWGQGTQVTVSS	binds
P1-9E (VHH) VHH: AVQLVESGGGLVPAGGSLRLSCGTSGPIFGHYTMDWYRQAPGNQRELVAGITDGGLLNYEDSVKGRFTISRDNAKNTVYLQMNSLKPEDTAVYYCHVRVLFSHYWGQGTQVTVSS	binds
P1-7C (VHH) VHH: AVQLVESGGGLVQPGGSLRLSCVASGDIFGFYAMGWYRQAPEKQRELVATITSGSITDYADSVKGRFQISRDNAKNTVYLQMNSLKPEDTAVYYCRLAPLESFDSTWRRVGGTGMDYWGKGTQVTVSS	binds
P1-6E (VHH) VHH: AVQLVESGGGLVQPGGSLRLSCVASGNIFGFYAMGWYRQAPEKQRELVATITSGSITDYADSVKGRFQISRDNAKNTVYLQMNSLKPEDTAVYYCRLAPLESFDSTWRRVGGTGMDYWGKGTQVTVSS	binds
P1-8H (VHH) VHH: AVQLVESGGGLVQAGGSLRLSCAASGLTFSHYAMGWFRQAPGKEREFVAAISWSGGSTYYADSVKGRFTISRDNAKNTVFLQMNNLKPEDTAVYYCAAGVLYIGDYPGSYQYDYWGQGTQVTVSS	binds
P1-12E (VHH) VHH: AVQLVESGGGLVQAGGSLRLSCAASGLTFSHYAMGWFRQAPGKEREFVAAISWSGGSTYYADSVEGRFTISRDNAKNTVFLQMNSLKPEDTAVYYCAAGVLYIGDYPGSYQYDYWGQGTQVTVSS	binds
P2-1H (VHH) VHH: AVQLVESGGGLVQAGGSLRLSCAASGLTFSHYAMGWFRQAPEKEREFVAAISWSGGSTYYADSVKGRFTISRDNAKNTVFLQMNSLKPEDTAVYYCAAGVLYIGDYPGSYQYDYWGQGTQVTVSS	binds
P1-12C (VHH) VHH: AVQLVESGGGLVQAGGSLRLSCAASGLTFSHYAMGWFRQAPGKEREFVAAISWSGGSTYYADSVKGRFTISRDNAKNMVFLQMNSLKPEDTAVYYCAAGVLYIGDYPGSYQYDYWGQGTQVTVSS	binds
P1-3C (VHH) VHH: AVQLVESGGGLVQPGGSLRLSCAASGSIFSIEIMGWYRQAPGKQRELVAGITGGGLTNYADSVKGRFTISRDNAKDTVYLQMNSLKPEDTADYYCNAQTRRVGGLPGGSWGQGTQVTVSS	binds
P1-11C (VHH) VHH: AVQLVESGGGLVQPGGSLRLSCAASGSIFSIEIMGWYRQAPGKQRELVAGITSGGLTNYADSVKGRFTISRDNAKNTVYLQMNSLKPEDTAVYYCNAQTRRVGGLPGGSWGQGTQVTVS	binds

Results, then the binder that gave them:

binding	Binder
binds	P2-6G (VHH) VHH: AVQLVESGGGLVQAGGSLRLSCAASRSIFRIEVMGWYRQAPGKQRELVAGITSGGLTNYAGSVKGRFTISRDNAENTVYLQMDSLKPEDTAVYYCNAQTRRLGGLPGGSWGQGTQVTVSS
binds	P2-2F (VHH) VHH: AVQLVESGGGLVQPGGSLRLSCAASRSIFRIEVMGWYRQAPGKQRELVAGITSGGLTNYAGSVKGRFAISRDNAENTVYLQMDSLKPEDTAVYYCNAQTRRLGGLPGGSWGQGTQVTVSS
binds	P2-2D (VHH) VHH: AVQLVESGGGLVQPGGSLRLSCAASGSIFSIEIMGWYRQAPGKQRELVAGITSGGLTNYADSVKGRFTISRDNAKNTVYLQMNSLKPEDTAVYYCNAQTRRVGGLPGGSWGLGTQVTVSS
binds	P2-5E (VHH) VHH: AVQLVESGGGLVQPGGSLRLSCAASGSIFSIEIMGWYRQAPGKQRELVAGITSGGLTNYADSVKGRFTISRDNAKNTMYLQMNSLKPEDTAVYYCNAQTRRVGGLPGGSWGQGTQVTVSS
binds	P2-10B (VHH) VHH: AVQLVESGGGLVQAGGSLRLSCAASGLTFSHYAMGWFRQAPGREREFVAAISWSGGSTYYADSVKGRFTISRDNAKNTVFLQMNSLKPEDTAVYYCAAGVLYIGDYLGSYQYDYWGQGTQVTVSS
binds	P2-10F (VHH) VHH: AVQLVESGGGLVQAGGSLRLSCAASGLTFSHYAMGWFRQAPGKEREFVAAISWSGGSTYYVDSVKGRFTISRDNAKNTVFLQMNSLKPEDTAVYYCAAGVLYIGDYPGSYQYDYWGQGTQVTVSS
binds	P2-3G (VHH) VHH: AVQLVESGGGLVQAGGSLRLSCAASGLTFSHYAMGWFRQAPGKEREFVAAISWSGGSTYYADSVKGRFTISRDSAKNTVFLQMNSLKPEDTAVYYCAAGVLYIGDYPGSYQYDYWGQGTQVTVSS
binds	P2-11G (VHH) VHH: AVQLVESGGGLVQAGGSLRLSCAASGLTFSHYAMGWFRQAPGKEREFVAAISWSGGSTYYADTVKGRFTISRDNAKNTVFLQMNSLKPEDTAVYYCAAGVLYIGDYPGSYQYDYWGQGTQVTVSS
binds	P2-11H (VHH) VHH: AVQLVESGGGLVQAGGSLRLSCAASGLTFSHYAMGWFRQAPGKEREFVAAISWSGGSTYYADSVKGRFTISRDNAKNTVFLQMNSLKPEDTAVYYCAAGVLHIGDYPGSYQYDYWGQGTQVTVSS
binds	P2-4B (VHH) VHH: AVQLVESGGGLVQAGGSLRLSCAASGLTFSHYAMGWFRQAPGKEREFVAAISWSGGSTYYADSVKGRFTISRDNAKNTVFLQMDSLKPEDTAVYYCAAGVLYIGDYPGSYQYDYWGQGTQVTVSS
binds	P2-8D (VHH) VHH: AVQLVESGGGLVQAGGSLRLSCAASGLTFSHYAMGWFRQAPGKEREFVAAISWSGGSAYYADSVKGRFTISRDNAKNTVFLQMNSLKPEDTAVYYCAAGVLYIGDYPGSYQYDYWGQGTQVTVSS
binds	P2-2H (VHH) VHH: AVQLVESGGGSVQPGGSLRLSCAASGSIFSIEIMGWYRQAPGKQRELVAGITGGGLTNYADSVKGRFTISRDNAKNTVYLQMNSLKPEDTADYYCNAQTRRVGGLPGGSWGQGTQVTVSS
binds	P2-4G (VHH) VHH: AVQLVESGGGLVQPGGSRRLSCAASGSIFSIEIMGWYRQAPGKQRELVAGITGGGLTNYADSVKGRFTISRDNAKNTVYLQMNSLKPEDTADYYCNAQTRRVGGLPGGSWGQGTQVTVSS
binds	P2-8F (VHH) VHH: AVQLVESGGGLVQPGGSLRLSCAASGGIFSINLMGWYRQAPGKQRELVAGITDGGLTNYADSVKGRFTISRDNAKNTVYLRMNSLKPEDTAVYYCNAQTRRVGGLPGGSWGQGTQVTVSS
